Experimental data: paper PMC9975939
Results are given in words; binding and its absence hold for the method and conditions named. In cells and extracts the contact can be indirect.

By UniProt entry, the sequences of proteins in these tests, tags left out.
UniProt Q96CV9: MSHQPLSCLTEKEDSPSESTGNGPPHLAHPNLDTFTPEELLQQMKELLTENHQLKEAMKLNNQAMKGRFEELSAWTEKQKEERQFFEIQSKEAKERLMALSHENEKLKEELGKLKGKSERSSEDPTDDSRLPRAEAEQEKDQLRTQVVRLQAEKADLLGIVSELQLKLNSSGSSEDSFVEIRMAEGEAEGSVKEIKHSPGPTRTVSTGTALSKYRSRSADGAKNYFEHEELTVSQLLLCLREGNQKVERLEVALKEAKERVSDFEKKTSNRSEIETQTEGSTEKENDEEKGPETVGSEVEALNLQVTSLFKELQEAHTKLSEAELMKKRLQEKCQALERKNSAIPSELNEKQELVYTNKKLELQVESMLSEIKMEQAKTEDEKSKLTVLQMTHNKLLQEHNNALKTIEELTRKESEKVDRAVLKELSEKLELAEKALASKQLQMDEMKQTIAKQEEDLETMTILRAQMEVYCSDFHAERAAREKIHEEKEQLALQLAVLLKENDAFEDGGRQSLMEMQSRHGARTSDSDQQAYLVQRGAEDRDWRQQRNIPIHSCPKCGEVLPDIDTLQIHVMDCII

Target: OPTN (human (endogenous in HeLa)) (UniProt Q96CV9)
Test: condition: only AO/bafilomycin A1 treatment (4 μM/10 μM AO, 400 nM Baf, 3 h); cross-linking; DLC in HeLa cells treated with 4 μM/10 μM AO with or without 400 nM Baf for 3 h; non-reducing SDS-PAGE, immunoblot for OPTN

- binding: no binding
Substance: OPTN (from UniProt Q96CV9 1-577)
